Data: PMC8806721
Results are given in words; binding and its absence hold for the method and conditions named. In cells and extracts the contact can be indirect. Some results given as binding are weak or reduced against the parent protein; the word gives no strength.

Amino acid sequences for entries named in this document (tags omitted).
UniProt Q9UMX0: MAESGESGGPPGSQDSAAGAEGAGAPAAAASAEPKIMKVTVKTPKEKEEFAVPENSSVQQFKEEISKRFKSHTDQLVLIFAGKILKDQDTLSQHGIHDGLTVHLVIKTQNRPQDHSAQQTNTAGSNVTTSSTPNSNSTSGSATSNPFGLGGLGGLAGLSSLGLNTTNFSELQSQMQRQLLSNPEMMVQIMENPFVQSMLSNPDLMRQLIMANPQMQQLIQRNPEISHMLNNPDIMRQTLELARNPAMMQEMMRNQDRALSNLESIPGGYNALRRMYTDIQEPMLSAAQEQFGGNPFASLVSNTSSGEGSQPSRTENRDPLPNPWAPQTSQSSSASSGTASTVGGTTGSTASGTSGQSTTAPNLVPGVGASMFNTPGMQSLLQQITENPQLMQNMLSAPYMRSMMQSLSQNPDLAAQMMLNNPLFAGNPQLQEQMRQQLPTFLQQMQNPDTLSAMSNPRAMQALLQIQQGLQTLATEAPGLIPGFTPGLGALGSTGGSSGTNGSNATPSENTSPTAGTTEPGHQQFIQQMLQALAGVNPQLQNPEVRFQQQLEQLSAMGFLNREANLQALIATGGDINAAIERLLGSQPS

Molecular target: T1, peroxisome proliferator-activated receptor γ coactivator 1α (UniProt Q9UBK2)
T1 sequence: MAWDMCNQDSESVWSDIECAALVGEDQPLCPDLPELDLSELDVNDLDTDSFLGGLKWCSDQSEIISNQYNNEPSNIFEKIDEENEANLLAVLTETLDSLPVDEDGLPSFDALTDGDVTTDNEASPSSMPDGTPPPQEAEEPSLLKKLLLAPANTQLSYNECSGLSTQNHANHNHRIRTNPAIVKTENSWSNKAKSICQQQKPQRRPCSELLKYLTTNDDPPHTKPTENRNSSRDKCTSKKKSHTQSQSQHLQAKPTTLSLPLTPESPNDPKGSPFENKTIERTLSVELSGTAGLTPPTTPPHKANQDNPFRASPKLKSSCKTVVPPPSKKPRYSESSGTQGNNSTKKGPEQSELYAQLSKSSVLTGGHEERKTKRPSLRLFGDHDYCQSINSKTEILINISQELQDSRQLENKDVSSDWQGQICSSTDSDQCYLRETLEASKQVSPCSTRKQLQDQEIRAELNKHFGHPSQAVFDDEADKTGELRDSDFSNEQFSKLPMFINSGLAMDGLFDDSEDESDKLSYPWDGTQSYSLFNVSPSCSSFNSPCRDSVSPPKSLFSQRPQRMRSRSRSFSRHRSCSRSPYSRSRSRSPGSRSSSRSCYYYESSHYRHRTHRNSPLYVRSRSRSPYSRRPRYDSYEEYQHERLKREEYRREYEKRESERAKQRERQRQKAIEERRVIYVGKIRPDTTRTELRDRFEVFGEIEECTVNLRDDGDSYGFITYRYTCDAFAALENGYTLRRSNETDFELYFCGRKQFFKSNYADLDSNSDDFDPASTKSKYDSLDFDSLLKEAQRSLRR
Assay: co-IP; Co-IP analysis of the UBQLN1-PGC1α interaction; cells, precipitating antibody and conditions not told

binding: binds
Substance: Ubiquilin 1 (from UniProt Q9UMX0 1-589)
